## Results of single-concentration screens

Sequences of proteins named here, by UniProt entry; tags and fusion partners are left off.
UniProt P9WFT3, whole entry: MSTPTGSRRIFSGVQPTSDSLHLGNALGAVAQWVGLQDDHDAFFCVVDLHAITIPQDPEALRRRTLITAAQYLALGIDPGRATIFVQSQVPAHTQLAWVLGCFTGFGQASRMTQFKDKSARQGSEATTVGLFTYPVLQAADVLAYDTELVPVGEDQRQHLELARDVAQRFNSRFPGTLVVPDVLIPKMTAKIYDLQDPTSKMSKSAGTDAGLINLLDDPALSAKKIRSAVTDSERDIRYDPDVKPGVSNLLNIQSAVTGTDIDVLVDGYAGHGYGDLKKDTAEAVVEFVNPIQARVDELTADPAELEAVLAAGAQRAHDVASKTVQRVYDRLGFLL

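Enzyme assay of tryptophanyl-tRNA synthetase; the read-out is not stated. Target: Tryptophan-tRNA ligase, Mycobacterium tuberculosis (UniProt P9WFT3). Concentration: 10 µM. Higher most likely means stronger inhibition; the record gives no direction and few retests gave an IC50. Of about 65,000 compounds tested this way, about 64 (0.098%) reached 50% or more in at least one test.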

The filed quantity is “Percent Effect” (%).
How 0% and 100% were set is not recorded. Most values in the screen are low, and negative values occur.
This is an unselected part of the compounds tested.

compound: CN(C)C(=O)c1cc(-c2ccc(S(C)(=O)=O)cc2)c2cnn(C)c2n1
effect: -0.2593

compound: CCO[C@H]1CO[C@@]2(CCCN(S(=O)(=O)c3cccnc3)C2)C1
effect: 0.382

compound: COc1ccccc1Oc1ncccc1CNC(=O)[C@@H](C)NC(C)=O
effect: -0.5687

compound: O=C(c1cnco1)N1C[C@@H]2CC[C@H](Oc3cccc(F)c3)[C@@H]2C1
effect: 3.595

compound: Cn1ccnc1CN1CCC2(CC(=O)N(c3ccc4c(c3)OCO4)C2)C1 (stereo unspecified)
effect: -5.534

compound: CN1CC(C(=O)NCc2cccnc2OCC(F)(F)F)CC1=O (stereo unspecified)
effect: 3.816

compound: Cc1noc(C)c1CN1C[C@H](OCC2CC2)[C@H]2OCCC[C@H]21
effect: -0.5029

compound: Cc1cnc(CN(C)C2CCN(CC(=O)Nc3nccs3)C2)o1 (stereo unspecified)
effect: -5.387

compound: COC(=O)C1CCCN1C(=O)c1cc(CC(C)C)no1 (stereo unspecified)
effect: 2.004

compound: CSCC[C@@H](CO)NC(=O)c1sc(-c2ccccc2Cl)nc1C
effect: 1.19

compound: Cc1cc(NC(=O)CN(C)C2CCCN(c3cccnn3)C2)n(C)n1 (stereo unspecified)
effect: 1.462

compound: CCn1nc(CC(C)C)cc1C(=O)N1CCC2(CC1)[C@H](O)C[C@@H]2O
effect: 3.027

compound: Cc1cnn(CCC(=O)N2CCN(c3nc(C)cs3)CC2)c1
effect: 1.495

compound: Cc1cc(C)c(CNC(=O)N2CCCC2C(N)=O)c(=O)[nH]1 (stereo unspecified)
effect: -1.267

compound: CC(CN1CCCC1=O)NC(=O)NCc1ccccc1-n1cccn1 (stereo unspecified)
effect: -4.003

compound: CCc1c(C)noc1-c1cnc(NC2CC2)nc1-c1cnc(C)cn1
effect: -6.431

compound: Cc1cnn(CC(C)NCc2csc(-c3ccco3)n2)c1 (stereo unspecified)
effect: -3.996

compound: COc1ccc(S(=O)(=O)N2CCn3cnc(COCC4CC4)c3C2)cc1
effect: 4.096

compound: CN(CCN1CCOCC1)C(=O)CCc1ccc(C(F)(F)F)cc1
effect: 0.9893

compound: CN(C)CCN(C)S(=O)(=O)CC1CCOCC1
effect: -1.051

compound: CC(=O)N1CCC2(CN(CC3CCCC3)C2)C1
effect: -2.183

compound: O=C(C1CNCCN1C(=O)CCOc1ccccc1)N1CCCC1 (stereo unspecified)
effect: 3.537

compound: Cc1sc(NC(=O)CN(C)CCOc2cccc(F)c2)c(C)c1C
effect: 2.529

compound: COCCC1COC2(CCN(C(=O)c3cccn3C)CC2)C1 (stereo unspecified)
effect: 0.7819

compound: Cc1ccccc1-c1noc(CN2CCC(N3CCNC3=O)CC2)n1
effect: 0

compound: CCC(O)CNc1nccc(-c2ccc(C)nc2C)n1 (stereo unspecified)
effect: 1.25

compound: Cc1noc(C)c1CN1CCCC1C(=O)OCc1ccccc1 (stereo unspecified)
effect: -6.116

compound: CCC(C)Nc1ccc2c(c1)C1(CCOCC1)C(=O)N2c1ccccc1 (stereo unspecified)
effect: 0.2116

compound: COCc1nc(C(=O)N2CCN(Cc3ccsc3)CC2)cs1
effect: 1.419

compound: COc1ncccc1C(=O)N1CCCC(c2cc(C)[nH]n2)C1 (stereo unspecified)
effect: -5.243

compound: CNC(=O)NC(=O)CN1CCCN(CC(F)(F)F)CC1
effect: 2.716

compound: Cc1nc(CN(C)C2CCN(Cc3ccc(Cl)s3)C2)no1 (stereo unspecified)
effect: -9.137

compound: CC(C)(C(=O)NCCCc1nc2ccccc2[nH]1)n1cc(Cl)cn1
effect: 5.21

compound: O=C1CC(c2ccncc2)C2(CCN(Cc3ccc(F)cc3)CC2)N1 (stereo unspecified)
effect: 2.092

compound: O=C(C1CC1)N1CCc2c(ncnc2NCCc2nc3c(s2)CCC3)C1
effect: 10.53

compound: COc1ccccc1OCC(=O)NCC(C)(O)c1ccccc1 (stereo unspecified)
effect: 4.771

compound: CN(C)C(=O)c1cn[nH]c1C1CCCN1Cc1cncn1C (stereo unspecified)
effect: -2.388

compound: Cc1cc(C)c(S(N)(=O)=O)cc1C(=O)NCCN1CCC(C)CC1
effect: -1.375

compound: CCN(CC)c1ccc(NC(=O)N2CCc3sccc3C2)cn1
effect: -1.816

compound: Cc1[nH]c(=O)[nH]c(=O)c1CN1CCCC(CCc2ccc(F)c(F)c2)C1 (stereo unspecified)
effect: -0.9675

compound: COc1cccc2sc(N3CC(OC(C)=O)C3)nc12
effect: -4.9

compound: CCn1cnnc1C1CCN(C(=O)c2cccc(C)c2C)CC1
effect: 0.779

compound: c1ccc(CN2CCc3ncnc(-c4ccoc4)c3CC2)nc1
effect: 0.08231

compound: N[C@H]1CN(C(=O)Cc2ccc(CO)cc2)C[C@@H]1C1CC1
effect: 4.371

compound: CCn1nc2c(cc1=O)CN(CC(=O)Nc1cc(C(C)C)no1)CC2
effect: 3.232

compound: Cc1cccc2[nH]c(-c3cn(C4CCNCC4)nn3)nc12
effect: 1.966

compound: Cc1nn(C)c(C)c1S(=O)(=O)NCC(C)(O)c1ccc2c(c1)OCO2 (stereo unspecified)
effect: 3.723

compound: CCC(CC)CN1CCCn2nc(CNC(=O)COC)cc2C1
effect: -1.696

compound: Cc1cccc(CSc2nnc(C)n2CC(N)=O)c1
effect: 5.527

compound: COc1ccc(CNc2cnn(C)c(=O)c2Cl)cc1
effect: -9.237

compound: Cc1nc(C(C)C)sc1C(=O)NCCSc1ccccn1
effect: -1.583

compound: Cn1ccc(C(=O)N2C[C@H]3CCC[C@@]3(COCc3cccnc3)C2)n1
effect: 0.4188

compound: CN(C)CC(=O)N1CCC2(CC1)COCCN(Cc1ccncc1)C2
effect: -0.5307

compound: Cc1cc(C)n(CC2CCCN2CCS(=O)(=O)c2ccccc2)n1 (stereo unspecified)
effect: -2.301

compound: CN(Cc1cn2c(n1)CN(Cc1ccc(F)cc1)CC2)Cc1ccco1
effect: -3.563

compound: O=C(CCn1cncn1)NC1(c2cccc(Br)c2)CCC1
effect: -3.563

compound: CC(NCc1ccncc1)c1cc2c(cc1Br)OCCO2 (stereo unspecified)
effect: -5.091

compound: COc1ccc(-c2cc(C3CCCCCN3S(=O)(=O)N(C)C)on2)cc1 (stereo unspecified)
effect: -5.435

compound: CCc1nc(CN2CCCC2C(=O)NC2CC2)cs1 (stereo unspecified)
effect: -0.8961

compound: Cc1[nH]c2ccc(C#N)cc2c1CCNc1ncnc2c1CCNCC2
effect: 1.163

Repeated from the top, 4 entries:

compound	effect
CN(C)C(=O)c1cc(-c2ccc(S(C)(=O)=O)cc2)c2cnn(C)c2n1	-0.2593
CCO[C@H]1CO[C@@]2(CCCN(S(=O)(=O)c3cccnc3)C2)C1	0.382
COc1ccccc1Oc1ncccc1CNC(=O)[C@@H](C)NC(C)=O	-0.5687
O=C(c1cnco1)N1C[C@@H]2CC[C@H](Oc3cccc(F)c3)[C@@H]2C1	3.595

From ChEMBL document CHEMBL3988442, “University of Dundee, Small-Polar-MMV Screening Library” (2021).